From the supplement of paper PMC10849652
This is one part of the list.

Chains of the proteins cited; added tags and fusions are not shown. Lines headed by an entry give the natural chain unless they say otherwise; changes in a name come on top.
UniProt Q96D46: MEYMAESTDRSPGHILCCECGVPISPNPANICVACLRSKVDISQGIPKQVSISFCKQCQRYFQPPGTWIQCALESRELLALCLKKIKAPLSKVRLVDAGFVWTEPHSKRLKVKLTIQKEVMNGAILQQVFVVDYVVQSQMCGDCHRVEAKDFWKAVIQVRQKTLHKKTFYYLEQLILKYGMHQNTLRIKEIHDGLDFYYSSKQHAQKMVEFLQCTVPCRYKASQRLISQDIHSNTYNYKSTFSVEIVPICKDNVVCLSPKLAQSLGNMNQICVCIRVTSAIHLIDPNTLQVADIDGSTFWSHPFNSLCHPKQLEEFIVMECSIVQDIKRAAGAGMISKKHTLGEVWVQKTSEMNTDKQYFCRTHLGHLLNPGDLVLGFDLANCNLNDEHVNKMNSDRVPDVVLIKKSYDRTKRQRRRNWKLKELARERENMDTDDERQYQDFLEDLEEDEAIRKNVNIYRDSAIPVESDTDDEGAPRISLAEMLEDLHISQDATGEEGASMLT
UniProt Q96RS6: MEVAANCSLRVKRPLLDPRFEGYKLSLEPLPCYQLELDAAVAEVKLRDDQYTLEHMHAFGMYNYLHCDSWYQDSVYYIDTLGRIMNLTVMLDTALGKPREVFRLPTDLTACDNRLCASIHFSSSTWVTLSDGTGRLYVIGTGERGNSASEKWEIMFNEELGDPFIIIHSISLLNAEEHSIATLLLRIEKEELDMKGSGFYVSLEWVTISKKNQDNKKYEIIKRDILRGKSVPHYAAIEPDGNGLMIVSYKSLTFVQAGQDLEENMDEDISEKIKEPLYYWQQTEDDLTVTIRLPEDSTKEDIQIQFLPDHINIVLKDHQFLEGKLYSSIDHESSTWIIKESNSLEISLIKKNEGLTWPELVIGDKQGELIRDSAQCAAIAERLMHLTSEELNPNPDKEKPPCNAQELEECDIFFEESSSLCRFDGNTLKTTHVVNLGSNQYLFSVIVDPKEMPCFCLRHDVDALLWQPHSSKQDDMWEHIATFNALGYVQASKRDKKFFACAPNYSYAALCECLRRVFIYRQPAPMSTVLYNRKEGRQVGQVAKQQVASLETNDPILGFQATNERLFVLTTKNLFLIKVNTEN
UniProt Q5JPE7: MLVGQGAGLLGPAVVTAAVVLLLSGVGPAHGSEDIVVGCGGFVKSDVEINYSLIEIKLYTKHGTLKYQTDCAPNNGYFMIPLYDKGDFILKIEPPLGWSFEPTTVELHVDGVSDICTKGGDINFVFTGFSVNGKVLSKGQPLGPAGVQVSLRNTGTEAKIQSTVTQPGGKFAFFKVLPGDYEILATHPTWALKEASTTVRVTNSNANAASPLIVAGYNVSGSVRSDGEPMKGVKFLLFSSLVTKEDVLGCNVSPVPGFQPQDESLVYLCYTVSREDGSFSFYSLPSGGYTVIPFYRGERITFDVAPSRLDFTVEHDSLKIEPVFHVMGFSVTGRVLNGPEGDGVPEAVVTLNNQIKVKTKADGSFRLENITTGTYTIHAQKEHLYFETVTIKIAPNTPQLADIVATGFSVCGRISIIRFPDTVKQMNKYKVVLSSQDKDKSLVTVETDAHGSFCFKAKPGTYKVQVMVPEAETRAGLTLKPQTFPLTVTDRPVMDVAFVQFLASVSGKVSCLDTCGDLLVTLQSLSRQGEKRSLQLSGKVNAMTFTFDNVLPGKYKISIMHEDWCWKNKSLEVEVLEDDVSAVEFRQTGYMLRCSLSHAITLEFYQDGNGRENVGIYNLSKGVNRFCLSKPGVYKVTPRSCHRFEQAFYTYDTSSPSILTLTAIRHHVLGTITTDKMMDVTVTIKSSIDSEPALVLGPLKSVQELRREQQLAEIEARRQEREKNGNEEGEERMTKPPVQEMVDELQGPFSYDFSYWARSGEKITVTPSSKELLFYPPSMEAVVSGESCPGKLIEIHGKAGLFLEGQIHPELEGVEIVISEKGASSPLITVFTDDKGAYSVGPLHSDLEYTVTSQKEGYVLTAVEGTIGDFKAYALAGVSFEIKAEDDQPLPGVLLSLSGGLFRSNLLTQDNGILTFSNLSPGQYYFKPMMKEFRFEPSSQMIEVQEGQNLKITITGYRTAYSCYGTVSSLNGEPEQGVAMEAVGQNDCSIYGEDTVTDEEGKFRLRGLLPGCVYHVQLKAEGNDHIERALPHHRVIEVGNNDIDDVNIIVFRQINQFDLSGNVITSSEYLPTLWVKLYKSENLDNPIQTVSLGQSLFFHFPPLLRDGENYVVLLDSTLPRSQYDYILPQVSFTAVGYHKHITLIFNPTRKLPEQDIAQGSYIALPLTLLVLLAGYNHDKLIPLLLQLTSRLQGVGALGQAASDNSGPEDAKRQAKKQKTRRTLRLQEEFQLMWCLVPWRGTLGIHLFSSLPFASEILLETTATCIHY
UniProt Q8NC60: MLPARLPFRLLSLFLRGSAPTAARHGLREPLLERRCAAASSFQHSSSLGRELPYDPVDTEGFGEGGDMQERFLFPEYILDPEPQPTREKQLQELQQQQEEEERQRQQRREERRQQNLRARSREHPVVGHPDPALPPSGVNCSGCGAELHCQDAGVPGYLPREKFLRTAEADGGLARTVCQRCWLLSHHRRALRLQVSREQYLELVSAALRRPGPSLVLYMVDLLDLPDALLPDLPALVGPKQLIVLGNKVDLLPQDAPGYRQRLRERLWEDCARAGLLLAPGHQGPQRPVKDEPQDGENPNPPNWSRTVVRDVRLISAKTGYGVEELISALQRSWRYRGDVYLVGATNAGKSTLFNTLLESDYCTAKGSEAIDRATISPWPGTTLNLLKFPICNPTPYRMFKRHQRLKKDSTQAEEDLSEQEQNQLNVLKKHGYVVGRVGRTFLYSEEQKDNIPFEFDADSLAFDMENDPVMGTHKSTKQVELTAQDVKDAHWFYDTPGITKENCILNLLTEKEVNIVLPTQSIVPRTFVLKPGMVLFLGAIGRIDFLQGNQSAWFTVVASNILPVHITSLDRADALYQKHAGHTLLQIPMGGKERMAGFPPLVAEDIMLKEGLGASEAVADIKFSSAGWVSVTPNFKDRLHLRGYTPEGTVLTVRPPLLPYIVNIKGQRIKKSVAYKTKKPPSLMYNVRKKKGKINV
UniProt Q8WVJ2: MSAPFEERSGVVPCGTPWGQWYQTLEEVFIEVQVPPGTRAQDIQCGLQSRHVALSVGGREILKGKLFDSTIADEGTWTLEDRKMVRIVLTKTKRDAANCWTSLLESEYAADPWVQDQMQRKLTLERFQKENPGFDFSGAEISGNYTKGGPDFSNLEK
UniProt P46459: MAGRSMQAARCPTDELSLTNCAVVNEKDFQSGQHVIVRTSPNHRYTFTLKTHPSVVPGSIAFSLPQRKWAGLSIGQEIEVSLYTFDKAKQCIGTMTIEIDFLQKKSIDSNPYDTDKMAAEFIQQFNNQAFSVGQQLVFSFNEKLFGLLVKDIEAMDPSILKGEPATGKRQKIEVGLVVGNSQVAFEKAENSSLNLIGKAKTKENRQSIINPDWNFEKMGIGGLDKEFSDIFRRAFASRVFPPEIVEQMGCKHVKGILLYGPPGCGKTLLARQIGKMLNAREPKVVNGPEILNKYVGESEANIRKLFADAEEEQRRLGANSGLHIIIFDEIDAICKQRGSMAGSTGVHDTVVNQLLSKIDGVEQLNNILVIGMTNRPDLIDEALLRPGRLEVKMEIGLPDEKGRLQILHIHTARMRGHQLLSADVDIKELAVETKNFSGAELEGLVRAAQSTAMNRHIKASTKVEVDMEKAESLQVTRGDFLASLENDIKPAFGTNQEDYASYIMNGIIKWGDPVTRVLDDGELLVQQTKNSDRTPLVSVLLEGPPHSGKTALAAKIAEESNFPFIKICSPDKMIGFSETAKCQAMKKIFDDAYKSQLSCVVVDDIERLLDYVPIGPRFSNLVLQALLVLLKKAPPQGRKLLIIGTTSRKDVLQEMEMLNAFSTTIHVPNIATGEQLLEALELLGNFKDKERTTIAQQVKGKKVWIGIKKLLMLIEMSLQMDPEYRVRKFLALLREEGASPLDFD
UniProt P22392, whole entry, looked up: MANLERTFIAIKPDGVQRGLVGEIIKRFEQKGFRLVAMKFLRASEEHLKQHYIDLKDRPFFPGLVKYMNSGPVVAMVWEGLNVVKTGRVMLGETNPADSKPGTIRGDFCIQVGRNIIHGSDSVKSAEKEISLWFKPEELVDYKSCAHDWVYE
UniProt Q9NV35: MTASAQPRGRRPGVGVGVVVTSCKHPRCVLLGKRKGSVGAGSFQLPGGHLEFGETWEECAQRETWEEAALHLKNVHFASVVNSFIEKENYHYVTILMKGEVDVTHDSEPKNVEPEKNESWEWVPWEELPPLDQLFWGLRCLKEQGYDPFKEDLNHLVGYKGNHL
UniProt Q8TCD5: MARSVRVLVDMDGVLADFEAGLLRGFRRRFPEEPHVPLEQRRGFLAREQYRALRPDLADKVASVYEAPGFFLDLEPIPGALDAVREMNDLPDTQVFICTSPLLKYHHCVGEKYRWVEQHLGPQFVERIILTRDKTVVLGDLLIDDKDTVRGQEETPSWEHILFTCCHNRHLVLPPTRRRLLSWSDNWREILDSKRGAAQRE
UniProt Q15738: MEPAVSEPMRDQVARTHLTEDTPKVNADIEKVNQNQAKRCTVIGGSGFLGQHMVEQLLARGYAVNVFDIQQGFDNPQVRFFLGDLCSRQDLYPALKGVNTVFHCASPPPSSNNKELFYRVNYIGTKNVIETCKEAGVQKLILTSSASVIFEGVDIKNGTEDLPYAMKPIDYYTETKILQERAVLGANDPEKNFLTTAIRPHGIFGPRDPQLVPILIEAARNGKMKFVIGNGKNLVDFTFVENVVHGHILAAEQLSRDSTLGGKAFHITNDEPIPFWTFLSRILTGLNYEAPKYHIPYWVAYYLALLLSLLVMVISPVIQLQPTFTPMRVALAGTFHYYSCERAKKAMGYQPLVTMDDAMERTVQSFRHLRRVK
UniProt Q08J23, whole entry, looked up: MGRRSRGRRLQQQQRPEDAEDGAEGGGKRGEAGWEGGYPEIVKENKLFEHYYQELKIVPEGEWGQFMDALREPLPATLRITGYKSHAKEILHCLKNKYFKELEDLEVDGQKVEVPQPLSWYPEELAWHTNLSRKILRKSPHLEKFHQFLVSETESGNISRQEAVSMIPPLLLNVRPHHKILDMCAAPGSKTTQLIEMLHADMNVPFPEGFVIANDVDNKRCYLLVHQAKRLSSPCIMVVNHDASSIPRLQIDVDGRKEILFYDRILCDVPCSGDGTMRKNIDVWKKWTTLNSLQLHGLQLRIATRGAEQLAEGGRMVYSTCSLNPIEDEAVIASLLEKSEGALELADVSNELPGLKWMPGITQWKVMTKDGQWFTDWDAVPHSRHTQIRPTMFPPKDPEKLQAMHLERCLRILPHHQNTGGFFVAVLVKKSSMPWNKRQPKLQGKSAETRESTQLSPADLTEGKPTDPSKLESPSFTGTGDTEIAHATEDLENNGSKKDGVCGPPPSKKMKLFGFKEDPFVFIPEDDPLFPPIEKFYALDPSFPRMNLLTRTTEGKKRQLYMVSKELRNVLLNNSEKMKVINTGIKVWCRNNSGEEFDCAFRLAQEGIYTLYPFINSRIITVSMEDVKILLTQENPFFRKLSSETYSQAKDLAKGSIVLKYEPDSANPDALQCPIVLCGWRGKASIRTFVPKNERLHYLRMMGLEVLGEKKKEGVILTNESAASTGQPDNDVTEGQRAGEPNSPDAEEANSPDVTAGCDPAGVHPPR
UniProt Q5TFE4: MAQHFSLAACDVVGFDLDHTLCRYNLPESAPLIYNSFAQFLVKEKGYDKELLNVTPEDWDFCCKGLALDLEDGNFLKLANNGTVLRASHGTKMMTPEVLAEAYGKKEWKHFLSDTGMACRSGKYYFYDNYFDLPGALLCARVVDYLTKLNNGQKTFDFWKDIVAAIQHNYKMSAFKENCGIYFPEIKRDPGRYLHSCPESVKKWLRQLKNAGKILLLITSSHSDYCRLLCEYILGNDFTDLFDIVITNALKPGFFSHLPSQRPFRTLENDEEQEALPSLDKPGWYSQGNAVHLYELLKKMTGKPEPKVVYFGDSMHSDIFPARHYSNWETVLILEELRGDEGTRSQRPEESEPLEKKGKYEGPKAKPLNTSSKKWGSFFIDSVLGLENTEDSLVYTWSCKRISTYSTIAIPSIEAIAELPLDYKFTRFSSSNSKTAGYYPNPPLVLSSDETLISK
UniProt Q9NSY0: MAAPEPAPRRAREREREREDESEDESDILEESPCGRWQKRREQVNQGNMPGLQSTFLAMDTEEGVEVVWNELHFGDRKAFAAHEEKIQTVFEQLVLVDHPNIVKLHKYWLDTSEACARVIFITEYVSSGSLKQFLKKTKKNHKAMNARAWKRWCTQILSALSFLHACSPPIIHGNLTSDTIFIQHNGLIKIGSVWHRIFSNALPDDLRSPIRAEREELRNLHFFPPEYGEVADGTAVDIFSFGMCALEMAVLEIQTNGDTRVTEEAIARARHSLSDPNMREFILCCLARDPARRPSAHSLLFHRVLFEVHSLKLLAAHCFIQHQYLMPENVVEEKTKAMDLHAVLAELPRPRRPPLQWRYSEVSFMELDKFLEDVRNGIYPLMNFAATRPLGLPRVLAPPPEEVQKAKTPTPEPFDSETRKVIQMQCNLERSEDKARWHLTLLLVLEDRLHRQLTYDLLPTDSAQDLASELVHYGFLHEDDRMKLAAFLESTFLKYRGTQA

What follows are targets tested with NC(=O)Nc1cc(-c2cccc(F)c2)sc1C(=O)N[C@H]1CCCNC1 (assay: log2 fold change, soluble protein after heating vs DMSO (PISA); higher = thermal stabilisation; K562 lysate, 10 uM; active = over 0.2 and 3.5 SD of the protein, either way, in both replicates (recomputed)).
In short: (§1)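 A 30 min treatment with 10 μM compound was applied to crude K562 extract at 1 mg/mL protein in PBS pH 7.4 with 1 mM MgCl2. Heating for 3 min spanned 48°C-58°C, after which aliquots were pooled, adjusted to 0.5% NP-40 at 4°C and spun at 21,000xg for 90 min. TMTpro 16plex LC-MS/MS of the supernatant, with channel sums equalised, gave values recorded as log-two fold change in thermal stability against solvent controls, from duplicates.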

log2 fold change, inactive:
NMD3 (UniProt Q96D46) 0.008
NSMCE4A (UniProt Q9NXX6) 0.006
NUDCD1 (UniProt Q96RS6) 0.026
NOMO2 (UniProt Q5JPE7) 0.028
NOA1 (UniProt Q8NC60) 0.059
NOP53 (UniProt Q9NZM5) -0.006
NOSIP (UniProt Q9Y314) 0.003
NUDCD2 (UniProt Q8WVJ2) 0.004
NSF (UniProt P46459) 0.014
NUMA1 (UniProt Q14980) 0.01
NME2 isoform 2 (UniProt P22392) -0.009
NUDT15 (UniProt Q9NV35) 0.032
NT5C (UniProt Q8TCD5) -0.019
NSDHL (UniProt Q15738) 0.002
NSUN2 (UniProt Q08J23) 0.024
NT5DC1 (UniProt Q5TFE4) -0.024
NRBP2 (UniProt Q9NSY0) 0.047
NT5DC2 isoform 2 (UniProt Q9H857) -0.002

The targets below were run with NC(=O)c1cnc(N[C@@H]2CCCC[C@@H]2N)nc1Nc1cccc(-n2nccn2)c1 in the same assay as above.
In short: as §1

log2 fold change, inactive:
NUDT5 (UniProt Q9UKK9) -0.013
NOL12 (UniProt Q9UGY1) -0.033
NUBP1 (UniProt P53384) -0.007
NUMBL (UniProt Q9Y6R0) -0.055
NUDT12 (UniProt Q9BQG2) -0.01
NMNAT1 (UniProt Q9HAN9) 0.013
NT5C2 (UniProt P49902) -0.01
NSRP1 (UniProt Q9H0G5) -0.02
NUDT4 isoform 2 (UniProt Q9NZJ9) -0.042
NSL1 (UniProt Q96IY1) 0.01
NSFL1C isoform 5 (UniProt Q9UNZ2) -0.028
NSUN5 isoform 2 (UniProt Q96P11) 0
NRAS (UniProt P01111) -0.019
NOC3L (UniProt Q8WTT2) 0.027
NMD3 (UniProt Q96D46) 0.002
NSMCE4A (UniProt Q9NXX6) 0.02
NUDCD1 (UniProt Q96RS6) -0.005
NOMO2 (UniProt Q5JPE7) -0.005
NOA1 (UniProt Q8NC60) 0.04
NOP53 (UniProt Q9NZM5) 0.003
NOSIP (UniProt Q9Y314) -0.015
NUDCD2 (UniProt Q8WVJ2) -0.064
NSF (UniProt P46459) 0.01
NUMA1 (UniProt Q14980) 0.006
NME2 isoform 2 (UniProt P22392) -0.017
NUDT15 (UniProt Q9NV35) -0.004
NT5C (UniProt Q8TCD5) 0.015
NSDHL (UniProt Q15738) 0.003
NSUN2 (UniProt Q08J23) -0.009
NT5DC1 (UniProt Q5TFE4) 0.016
NRBP2 (UniProt Q9NSY0) -0.013
NT5DC2 isoform 2 (UniProt Q9H857) 0.06

These targets were tested with NC1(c2ccc(-c3nc4ccn5c(=O)[nH]nc5c4cc3-c3ccccc3)cc2)CCC1 in the same assay as above.
In short: as §1

log2 fold change, inactive:
NUDT5 (UniProt Q9UKK9) -0.014
NOL12 (UniProt Q9UGY1) 0.046
NUBP1 (UniProt P53384) 0.033
NUMBL (UniProt Q9Y6R0) -0.046
NUDT12 (UniProt Q9BQG2) -0.009
NMNAT1 (UniProt Q9HAN9) -0.006
NT5C2 (UniProt P49902) -0.023
NSRP1 (UniProt Q9H0G5) 0.023
NUDT4 isoform 2 (UniProt Q9NZJ9) 0.043
NSL1 (UniProt Q96IY1) -0.007
NSFL1C isoform 5 (UniProt Q9UNZ2) 0.017
NSUN5 isoform 2 (UniProt Q96P11) 0.018
NRAS (UniProt P01111) 0.014
NOC3L (UniProt Q8WTT2) -0.048
NMD3 (UniProt Q96D46) -0.01
NSMCE4A (UniProt Q9NXX6) -0.003
NUDCD1 (UniProt Q96RS6) 0.018
NOMO2 (UniProt Q5JPE7) -0.034
NOA1 (UniProt Q8NC60) -0.001
NOP53 (UniProt Q9NZM5) -0.007
NOSIP (UniProt Q9Y314) 0.006
NUDCD2 (UniProt Q8WVJ2) -0.09
NSF (UniProt P46459) 0.004
NUMA1 (UniProt Q14980) 0.016
NME2 isoform 2 (UniProt P22392) 0
NUDT15 (UniProt Q9NV35) -0.042
NT5C (UniProt Q8TCD5) 0.012
NSDHL (UniProt Q15738) -0.001
NSUN2 (UniProt Q08J23) -0.011
NT5DC1 (UniProt Q5TFE4) -0.002
NRBP2 (UniProt Q9NSY0) -0.011
NT5DC2 isoform 2 (UniProt Q9H857) -0.011
